We go through one substance from paper PMC11907943.

Protein sequences, listed by entry. Tags and fused reporters are not part of them. Residues count along the entry.
UniProt P63158: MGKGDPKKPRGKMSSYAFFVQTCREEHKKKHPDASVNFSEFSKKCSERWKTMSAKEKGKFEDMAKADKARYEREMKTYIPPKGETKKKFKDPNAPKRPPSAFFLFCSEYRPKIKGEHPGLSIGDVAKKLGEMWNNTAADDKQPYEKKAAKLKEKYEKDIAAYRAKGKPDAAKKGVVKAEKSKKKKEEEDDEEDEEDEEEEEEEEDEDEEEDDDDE
UniProt Q9QUK6, residues 26-835: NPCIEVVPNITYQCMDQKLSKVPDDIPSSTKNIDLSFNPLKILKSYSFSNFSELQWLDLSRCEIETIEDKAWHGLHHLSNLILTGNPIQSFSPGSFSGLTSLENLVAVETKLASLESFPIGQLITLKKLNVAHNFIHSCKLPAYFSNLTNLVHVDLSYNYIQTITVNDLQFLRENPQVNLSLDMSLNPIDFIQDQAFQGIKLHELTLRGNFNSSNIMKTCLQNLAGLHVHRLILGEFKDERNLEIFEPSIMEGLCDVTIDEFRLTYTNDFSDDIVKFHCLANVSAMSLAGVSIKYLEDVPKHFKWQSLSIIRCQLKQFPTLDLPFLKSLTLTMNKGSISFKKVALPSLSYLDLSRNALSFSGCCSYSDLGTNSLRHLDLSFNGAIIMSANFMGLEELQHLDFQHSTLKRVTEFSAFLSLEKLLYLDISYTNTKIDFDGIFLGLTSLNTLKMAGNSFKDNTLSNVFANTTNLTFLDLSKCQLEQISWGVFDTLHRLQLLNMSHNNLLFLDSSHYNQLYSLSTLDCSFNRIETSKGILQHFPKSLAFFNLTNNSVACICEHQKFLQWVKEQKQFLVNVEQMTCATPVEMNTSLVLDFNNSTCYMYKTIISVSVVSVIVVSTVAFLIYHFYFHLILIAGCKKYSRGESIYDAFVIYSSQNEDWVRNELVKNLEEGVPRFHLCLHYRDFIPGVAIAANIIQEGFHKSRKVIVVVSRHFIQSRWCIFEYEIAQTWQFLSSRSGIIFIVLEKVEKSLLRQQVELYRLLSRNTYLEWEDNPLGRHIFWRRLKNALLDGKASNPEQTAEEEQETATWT

The target of the test is HMGB1 (UniProt P63158). In words: co-IP; cell lysates (Pierce IP lysis buffer with protease inhibitors) incubated overnight at 4 °C with anti-HMGB1 or anti-TLR4 antibody or control IgG, Protein A/G PLUS-Agarose, beads washed three times with PBS; immunoblot with anti-HMGB1 and anti-TLR4; cells not named. In general terms: A western blot detects proteins with antibodies after separation by electrophoresis.

No constants are given. Whether binding was seen depends on the method and setting. Binding seen in cells or lysates may run through a third protein. Some entries that bind do so weakly or less than the wild type.

As to “TLR4 (from UniProt Q9QUK6 26-835) (receptor)”, the binding entry is on record as “binds”.
